Laboratory results taken from patent publication US4076702A, “Dipeptide derivatives and their production” (Shionogi & Co., Ltd., priority 1974, dated 1978).

Tested on: DS male mice
Settings: oral single dose, observed 72 hours, Bliss method

## CN1C(=O)CN=C(c2ccccc2)c2cc(Cl)ccc21 [Compound No. 5, Diazepam, reference compound]
  Acute toxicity LD50: 1459 mg/kg
